Publication PMC11252441
Results are given in words; binding and its absence hold for the method and conditions named. Binding seen in cells or lysates may run through a third protein. A yes stands for co-enrichment or nearness to the bait. Other partners may have been found.

Sequences of proteins named here, by UniProt entry; tags and fusion partners are left off. Residues count along the entry.
UniProt P20491, residues 19-86: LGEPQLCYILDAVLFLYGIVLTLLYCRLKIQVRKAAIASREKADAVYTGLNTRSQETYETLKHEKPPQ
UniProt G3X9K3: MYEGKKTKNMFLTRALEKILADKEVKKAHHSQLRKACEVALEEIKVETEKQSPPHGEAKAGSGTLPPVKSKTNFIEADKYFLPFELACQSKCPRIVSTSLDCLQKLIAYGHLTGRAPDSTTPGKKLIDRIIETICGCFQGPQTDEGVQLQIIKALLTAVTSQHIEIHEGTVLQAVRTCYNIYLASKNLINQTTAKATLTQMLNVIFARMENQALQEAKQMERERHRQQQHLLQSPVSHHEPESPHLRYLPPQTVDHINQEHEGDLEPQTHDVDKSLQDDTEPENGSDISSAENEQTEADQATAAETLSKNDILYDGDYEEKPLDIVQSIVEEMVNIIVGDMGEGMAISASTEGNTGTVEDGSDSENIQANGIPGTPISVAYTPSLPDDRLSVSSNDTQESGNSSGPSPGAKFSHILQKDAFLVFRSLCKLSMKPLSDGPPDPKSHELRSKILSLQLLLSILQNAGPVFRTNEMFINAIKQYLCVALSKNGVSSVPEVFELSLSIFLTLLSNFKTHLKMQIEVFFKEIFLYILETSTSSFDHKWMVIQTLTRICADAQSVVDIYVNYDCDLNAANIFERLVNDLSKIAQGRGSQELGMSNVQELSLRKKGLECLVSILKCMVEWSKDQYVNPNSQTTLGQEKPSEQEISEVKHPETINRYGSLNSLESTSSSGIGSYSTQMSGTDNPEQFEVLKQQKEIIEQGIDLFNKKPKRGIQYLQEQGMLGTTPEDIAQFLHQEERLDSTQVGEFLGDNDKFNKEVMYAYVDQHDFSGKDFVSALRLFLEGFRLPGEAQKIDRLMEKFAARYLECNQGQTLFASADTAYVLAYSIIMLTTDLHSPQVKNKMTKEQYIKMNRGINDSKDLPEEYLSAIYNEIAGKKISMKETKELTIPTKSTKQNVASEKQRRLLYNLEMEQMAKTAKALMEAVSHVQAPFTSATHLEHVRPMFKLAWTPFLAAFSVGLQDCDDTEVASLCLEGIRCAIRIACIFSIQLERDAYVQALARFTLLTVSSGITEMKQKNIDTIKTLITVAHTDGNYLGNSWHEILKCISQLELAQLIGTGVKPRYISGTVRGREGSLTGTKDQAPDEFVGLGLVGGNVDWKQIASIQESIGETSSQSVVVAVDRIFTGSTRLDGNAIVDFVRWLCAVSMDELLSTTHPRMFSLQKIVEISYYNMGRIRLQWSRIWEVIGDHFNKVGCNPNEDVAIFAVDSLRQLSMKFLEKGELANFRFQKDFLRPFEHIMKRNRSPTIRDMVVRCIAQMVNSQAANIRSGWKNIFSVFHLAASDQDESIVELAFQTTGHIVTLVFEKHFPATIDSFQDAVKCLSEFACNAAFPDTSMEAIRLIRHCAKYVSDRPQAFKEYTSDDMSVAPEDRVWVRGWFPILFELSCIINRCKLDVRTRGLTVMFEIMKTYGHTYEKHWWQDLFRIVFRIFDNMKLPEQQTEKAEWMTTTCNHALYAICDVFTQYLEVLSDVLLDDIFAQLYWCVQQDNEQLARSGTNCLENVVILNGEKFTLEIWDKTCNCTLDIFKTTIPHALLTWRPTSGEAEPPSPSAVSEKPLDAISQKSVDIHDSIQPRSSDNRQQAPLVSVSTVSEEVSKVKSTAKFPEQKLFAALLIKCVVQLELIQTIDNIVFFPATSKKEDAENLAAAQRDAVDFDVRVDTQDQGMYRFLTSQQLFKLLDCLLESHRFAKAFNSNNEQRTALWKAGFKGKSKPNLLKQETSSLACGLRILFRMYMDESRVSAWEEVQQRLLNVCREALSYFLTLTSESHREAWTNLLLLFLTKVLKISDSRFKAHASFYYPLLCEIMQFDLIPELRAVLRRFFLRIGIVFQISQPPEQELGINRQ
UniProt Q6DFZ1: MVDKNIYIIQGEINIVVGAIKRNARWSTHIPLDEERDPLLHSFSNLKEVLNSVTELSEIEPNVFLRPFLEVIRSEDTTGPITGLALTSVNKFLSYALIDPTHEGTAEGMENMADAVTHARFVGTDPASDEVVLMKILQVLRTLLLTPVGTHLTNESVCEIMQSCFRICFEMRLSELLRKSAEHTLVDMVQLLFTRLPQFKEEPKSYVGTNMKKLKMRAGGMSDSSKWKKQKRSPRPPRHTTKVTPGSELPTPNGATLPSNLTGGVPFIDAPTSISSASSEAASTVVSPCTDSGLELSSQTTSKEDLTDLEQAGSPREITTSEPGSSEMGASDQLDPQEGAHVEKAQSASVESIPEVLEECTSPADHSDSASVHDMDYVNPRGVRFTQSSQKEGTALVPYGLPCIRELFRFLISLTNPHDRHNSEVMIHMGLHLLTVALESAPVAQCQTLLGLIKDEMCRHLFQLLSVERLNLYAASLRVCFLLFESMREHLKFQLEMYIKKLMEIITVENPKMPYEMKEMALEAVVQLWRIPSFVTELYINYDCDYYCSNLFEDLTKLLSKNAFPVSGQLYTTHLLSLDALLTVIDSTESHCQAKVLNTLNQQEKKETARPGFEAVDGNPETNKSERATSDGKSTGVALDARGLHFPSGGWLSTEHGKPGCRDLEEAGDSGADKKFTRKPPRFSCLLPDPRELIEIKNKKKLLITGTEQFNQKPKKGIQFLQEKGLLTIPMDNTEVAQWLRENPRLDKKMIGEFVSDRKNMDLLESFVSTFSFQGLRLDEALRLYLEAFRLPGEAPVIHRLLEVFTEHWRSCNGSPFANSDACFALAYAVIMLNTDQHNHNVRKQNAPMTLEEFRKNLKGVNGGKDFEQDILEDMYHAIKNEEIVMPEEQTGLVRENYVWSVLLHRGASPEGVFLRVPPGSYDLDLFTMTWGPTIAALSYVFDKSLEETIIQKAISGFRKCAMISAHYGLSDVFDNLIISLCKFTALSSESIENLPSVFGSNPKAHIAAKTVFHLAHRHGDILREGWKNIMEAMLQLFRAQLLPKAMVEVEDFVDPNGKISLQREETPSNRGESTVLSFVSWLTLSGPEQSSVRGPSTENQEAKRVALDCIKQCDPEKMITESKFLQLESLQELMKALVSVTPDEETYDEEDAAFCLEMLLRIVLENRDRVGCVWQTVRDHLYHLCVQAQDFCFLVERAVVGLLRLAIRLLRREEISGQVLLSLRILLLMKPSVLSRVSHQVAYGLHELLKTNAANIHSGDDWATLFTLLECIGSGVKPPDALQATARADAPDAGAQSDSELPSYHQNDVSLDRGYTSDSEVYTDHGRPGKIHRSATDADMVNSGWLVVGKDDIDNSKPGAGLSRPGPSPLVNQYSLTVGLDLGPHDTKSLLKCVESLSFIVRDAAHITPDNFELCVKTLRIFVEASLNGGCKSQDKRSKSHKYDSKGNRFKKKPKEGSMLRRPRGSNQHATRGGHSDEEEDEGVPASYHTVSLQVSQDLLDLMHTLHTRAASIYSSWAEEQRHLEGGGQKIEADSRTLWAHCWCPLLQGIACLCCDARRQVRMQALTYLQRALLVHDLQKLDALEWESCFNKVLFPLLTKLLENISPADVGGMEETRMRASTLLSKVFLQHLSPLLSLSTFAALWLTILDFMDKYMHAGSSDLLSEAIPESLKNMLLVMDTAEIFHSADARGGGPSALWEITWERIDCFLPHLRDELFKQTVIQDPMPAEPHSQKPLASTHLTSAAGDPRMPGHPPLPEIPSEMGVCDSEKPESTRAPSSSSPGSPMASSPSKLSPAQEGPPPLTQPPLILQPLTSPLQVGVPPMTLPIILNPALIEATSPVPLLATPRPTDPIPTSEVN
UniProt P70168: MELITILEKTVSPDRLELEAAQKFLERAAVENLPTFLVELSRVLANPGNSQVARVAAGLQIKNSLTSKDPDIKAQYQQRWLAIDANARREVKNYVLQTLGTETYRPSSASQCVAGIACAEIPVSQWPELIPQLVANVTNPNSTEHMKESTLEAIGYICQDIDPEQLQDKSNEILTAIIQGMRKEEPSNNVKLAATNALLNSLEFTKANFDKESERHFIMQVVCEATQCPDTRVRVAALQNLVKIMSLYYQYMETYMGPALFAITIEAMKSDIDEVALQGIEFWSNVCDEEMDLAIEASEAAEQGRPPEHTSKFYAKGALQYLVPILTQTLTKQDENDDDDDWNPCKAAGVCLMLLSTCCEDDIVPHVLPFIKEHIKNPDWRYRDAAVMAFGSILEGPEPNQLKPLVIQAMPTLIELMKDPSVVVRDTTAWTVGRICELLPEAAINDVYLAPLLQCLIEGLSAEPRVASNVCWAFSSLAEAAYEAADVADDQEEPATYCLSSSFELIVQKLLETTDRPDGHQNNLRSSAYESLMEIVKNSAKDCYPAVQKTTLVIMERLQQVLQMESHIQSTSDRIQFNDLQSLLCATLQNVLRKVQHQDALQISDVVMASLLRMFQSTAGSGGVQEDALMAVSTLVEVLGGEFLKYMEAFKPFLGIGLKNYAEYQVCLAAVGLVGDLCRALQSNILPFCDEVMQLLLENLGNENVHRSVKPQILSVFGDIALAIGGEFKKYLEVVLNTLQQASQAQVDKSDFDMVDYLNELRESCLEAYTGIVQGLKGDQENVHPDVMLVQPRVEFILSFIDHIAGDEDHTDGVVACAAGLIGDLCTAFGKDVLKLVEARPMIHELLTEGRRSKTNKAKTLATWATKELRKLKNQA
UniProt Q6P5F9: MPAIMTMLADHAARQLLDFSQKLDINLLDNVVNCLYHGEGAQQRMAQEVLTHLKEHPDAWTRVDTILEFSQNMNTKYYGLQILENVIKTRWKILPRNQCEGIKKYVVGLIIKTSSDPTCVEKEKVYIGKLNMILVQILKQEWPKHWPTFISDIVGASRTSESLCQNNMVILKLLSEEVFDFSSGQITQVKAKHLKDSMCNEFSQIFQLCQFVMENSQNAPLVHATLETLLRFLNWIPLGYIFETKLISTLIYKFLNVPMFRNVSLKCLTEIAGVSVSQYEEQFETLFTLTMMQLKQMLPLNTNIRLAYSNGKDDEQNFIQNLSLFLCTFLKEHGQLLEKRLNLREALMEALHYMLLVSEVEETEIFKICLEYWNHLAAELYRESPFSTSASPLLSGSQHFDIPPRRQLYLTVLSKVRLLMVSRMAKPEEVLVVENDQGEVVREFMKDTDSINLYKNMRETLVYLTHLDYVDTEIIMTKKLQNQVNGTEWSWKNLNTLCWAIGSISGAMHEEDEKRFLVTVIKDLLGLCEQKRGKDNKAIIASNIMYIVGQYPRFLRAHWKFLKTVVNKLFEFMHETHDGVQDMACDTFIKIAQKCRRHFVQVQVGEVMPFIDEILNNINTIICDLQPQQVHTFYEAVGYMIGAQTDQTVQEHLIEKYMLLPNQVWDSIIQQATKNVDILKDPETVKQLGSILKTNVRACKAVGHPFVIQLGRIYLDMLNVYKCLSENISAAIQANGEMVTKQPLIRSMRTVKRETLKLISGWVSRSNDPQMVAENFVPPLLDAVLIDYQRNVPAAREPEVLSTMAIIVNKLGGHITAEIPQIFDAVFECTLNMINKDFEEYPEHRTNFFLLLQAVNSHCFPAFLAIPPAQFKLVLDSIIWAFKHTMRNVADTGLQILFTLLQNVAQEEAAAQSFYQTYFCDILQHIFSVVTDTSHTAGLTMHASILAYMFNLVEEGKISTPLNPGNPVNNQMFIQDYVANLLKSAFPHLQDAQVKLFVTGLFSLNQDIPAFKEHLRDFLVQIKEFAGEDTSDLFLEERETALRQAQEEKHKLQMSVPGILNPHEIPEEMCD
UniProt Q6PD03: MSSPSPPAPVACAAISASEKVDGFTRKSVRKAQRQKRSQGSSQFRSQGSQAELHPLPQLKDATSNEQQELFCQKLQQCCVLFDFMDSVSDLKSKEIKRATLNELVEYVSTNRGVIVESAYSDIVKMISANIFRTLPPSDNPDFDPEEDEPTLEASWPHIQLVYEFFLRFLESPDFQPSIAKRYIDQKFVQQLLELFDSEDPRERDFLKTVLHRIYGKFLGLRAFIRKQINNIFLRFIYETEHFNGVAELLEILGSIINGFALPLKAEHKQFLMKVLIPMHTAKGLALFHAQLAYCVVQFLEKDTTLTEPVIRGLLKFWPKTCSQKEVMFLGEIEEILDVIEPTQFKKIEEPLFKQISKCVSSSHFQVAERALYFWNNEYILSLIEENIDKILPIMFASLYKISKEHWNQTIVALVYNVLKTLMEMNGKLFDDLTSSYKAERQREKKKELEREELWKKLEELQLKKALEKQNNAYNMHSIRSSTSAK

Target: FcεR1γ-FLAG (mouse) (UniProt P20491)
Assay: affinity purification with mass spectrometry; anti-FLAG antibodies and Protein A/G magnetic beads on lysate of GFP+ RAW 264.7 cells lentivirally expressing FcεR1γ-FLAG (empty virus as control); lysis 50 mM Tris-HCl pH 7.4, 150 mM NaCl, 1% Triton X-100, 5 mM EDTA; wash with 500 mM NaCl, 0.1% Triton X-100; 4 °C; Orbitrap Exploris 480, MaxQuant LFQ

Row | binding | Substance
1 | binds | ARFGEF1 (from UniProt G3X9K3 1-1846)
2 | binds | ARFGEF3 (from UniProt Q3UGY8 1-2170)
3 | binds | DOCK2 (from UniProt Q8C3J5 1-1828)
4 | binds | GBF1 (from UniProt Q6DFZ1 1-1861)
5 | binds | IPO9 (from UniProt Q91YE6 1-1041)
6 | binds | KPNB1 (from UniProt P70168 1-876)
7 | binds | XPO1 (from UniProt Q6P5F9 1-1071)

Second part, the substance before the results:

Row | Substance | binding
8 | CYFIP1 (from UniProt Q7TMB8 1-1253) | binds
9 | ELMO1 (from UniProt Q8BPU7 1-727) | binds
10 | IPO7 (from UniProt Q9EPL8 1-1038) | binds
11 | JAK1 (from UniProt P52332 1-1153) | binds
12 | PPP2R1B (from UniProt Q7TNP2 1-601) | binds
13 | PPP2R5A (from UniProt Q6PD03 1-486) | binds
